Laboratory results published in article PMC11172885.
Results are given in words; binding and its absence hold for the method and conditions named. In cells and extracts the contact can be indirect. Some results given as binding are weak or reduced against the parent protein; the word gives no strength.

Protein sequences, listed by entry. Tags and fused reporters are not part of them.
UniProt Q6IQ55: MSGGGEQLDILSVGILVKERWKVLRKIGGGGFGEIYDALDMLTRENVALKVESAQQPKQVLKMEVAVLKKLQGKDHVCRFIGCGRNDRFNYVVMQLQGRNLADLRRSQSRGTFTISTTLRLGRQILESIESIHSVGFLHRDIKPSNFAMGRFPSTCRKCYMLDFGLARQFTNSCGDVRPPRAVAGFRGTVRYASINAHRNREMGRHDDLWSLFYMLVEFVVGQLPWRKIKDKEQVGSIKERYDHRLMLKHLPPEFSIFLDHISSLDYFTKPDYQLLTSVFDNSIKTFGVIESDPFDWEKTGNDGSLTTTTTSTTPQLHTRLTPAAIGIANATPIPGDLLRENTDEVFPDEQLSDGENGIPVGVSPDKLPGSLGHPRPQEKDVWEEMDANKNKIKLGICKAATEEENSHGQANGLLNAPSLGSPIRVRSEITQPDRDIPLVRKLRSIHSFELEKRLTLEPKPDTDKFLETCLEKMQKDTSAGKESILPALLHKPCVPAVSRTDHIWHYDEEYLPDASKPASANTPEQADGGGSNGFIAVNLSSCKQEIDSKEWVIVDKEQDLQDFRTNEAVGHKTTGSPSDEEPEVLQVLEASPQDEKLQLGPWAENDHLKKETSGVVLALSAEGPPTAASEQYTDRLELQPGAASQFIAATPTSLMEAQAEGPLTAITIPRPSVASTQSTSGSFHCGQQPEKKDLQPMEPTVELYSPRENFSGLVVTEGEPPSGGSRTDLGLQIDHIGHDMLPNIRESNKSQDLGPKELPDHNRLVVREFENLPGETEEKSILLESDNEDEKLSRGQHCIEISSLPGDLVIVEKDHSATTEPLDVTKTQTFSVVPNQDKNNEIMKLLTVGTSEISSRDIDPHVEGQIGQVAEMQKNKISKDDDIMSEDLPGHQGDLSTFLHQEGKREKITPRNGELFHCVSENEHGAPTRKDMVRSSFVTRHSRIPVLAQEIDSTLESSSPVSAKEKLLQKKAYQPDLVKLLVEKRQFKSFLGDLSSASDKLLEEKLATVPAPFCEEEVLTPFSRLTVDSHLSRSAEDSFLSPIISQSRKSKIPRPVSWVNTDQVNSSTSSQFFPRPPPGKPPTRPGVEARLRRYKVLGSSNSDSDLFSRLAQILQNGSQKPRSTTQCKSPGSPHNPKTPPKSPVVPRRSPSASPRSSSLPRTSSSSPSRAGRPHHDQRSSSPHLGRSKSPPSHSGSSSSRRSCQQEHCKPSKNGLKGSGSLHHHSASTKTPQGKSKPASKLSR

Molecular target: TTBK2 (tau tubulin kinase 2) (human (endogenous in RCTE)) (UniProt Q6IQ55)
Test: co-IP; anti-SMYD3 and anti-TTBK2 antibodies and isotype controls coupled to protein A agarose beads; cell lysates (1% Triton X-100, 150 mM NaCl, pH 7.4) incubated overnight at 4 °C; washed with lysis buffer containing an additional 300 mM NaCl; Western blot

B1: SET- and MYND-domain-containing protein 3 (SMYD3) (protein, UniProt Q9H7B4 1-428)
chain: MEPLKVEKFATAKRGNGLRAVTPLRPGELLFRSDPLAYTVCKGSRGVVCDRCLLGKEKLMRCSQCRVAKYCSAKCQKKAWPDHKRECKCLKSCKPRYPPDSVRLLGRVVFKLMDGAPSESEKLYSFYDLESNINKLTEDKKEGLRQLVMTFQHFMREEIQDASQLPPAFDLFEAFAKVICNSFTICNAEMQEVGVGLYPSISLLNHSCDPNCSIVFNGPHLLLRAVRDIEVGEELTICYLDMLMTSEERRKQLRDQYCFECDCFRCQTQDKDADMLTGDEQVWKEVQESLKKIEELKAHWKWEQVLAMCQAIISSNSERLPDINIYQLKVLDCAMDACINLGLLEEALFYGTRTMEPYRIFFPGSHPVRGVQVMKVGKLQLHQGMFPQAMKNLRLAFDIMRVTHGREHSLIEDLILLLEECDANIRAS
In the case of B1, the binding is reported as “binds”.
